Laboratory results reported in PMC4995099, “Drosophila Nanos acts as a molecular clamp that modulates the RNA-binding and repression activities of Pumilio”.

Tests used:
Assay in all cases: native gel or EMSA; hb NRE2 RNA (1 nM Cy5-labelled, or 0.3 nM 5´-32P-labelled); Nos and Pum at the concentrations shown above the gels, NosZC titrated 0-1000 nM into 100 nM Pum, or Pum titrated 0-200 nM at 400 nM NosZC; 50 mM Tris-HCl pH 7.6, 150 mM NaCl, 2 mM DTT, 3 hr at 4°C; 5% native polyacrylamide TBE gel; read-out is the shift of the labelled RNA; both purified
[1] = target: T1, Pum mutR7 (RNA-binding defective; S1342A N1343A E1346A) (Drosophila melanogaster) (UniProt P25822)
T1 sequence: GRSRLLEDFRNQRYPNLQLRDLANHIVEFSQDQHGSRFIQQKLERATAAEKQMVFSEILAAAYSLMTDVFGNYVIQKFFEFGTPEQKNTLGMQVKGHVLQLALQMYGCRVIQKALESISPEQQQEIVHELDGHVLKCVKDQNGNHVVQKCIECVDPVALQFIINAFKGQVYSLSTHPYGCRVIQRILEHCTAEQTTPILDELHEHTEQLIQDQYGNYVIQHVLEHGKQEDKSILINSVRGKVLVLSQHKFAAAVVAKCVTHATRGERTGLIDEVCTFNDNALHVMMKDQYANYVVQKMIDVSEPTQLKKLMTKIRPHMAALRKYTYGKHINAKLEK

[2] = target: T2, Pum F1367S (Drosophila melanogaster) (UniProt P25822)
T2 sequence: T1 sequence with A252S, A253N, A256E, F277S

[3] = target: T3, Pum Q1337A (Drosophila melanogaster) (UniProt P25822)
T3 sequence: T1 sequence with Q247A, A252S, A253N, A256E

Measured: binding

Nos ZC (aa289-401) with C-terminal V5 epitope, EMSA construct (Drosophila melanogaster) (domain or fragment)
no binding: all assays above

Changes are numbered by the printed parent chain. These are yes or no findings as the source states them, for the method shown.
